Laboratory results from publication PMC5342437.
Results are given in words; binding and its absence hold for the method and conditions named. In cells and extracts the contact can be indirect. Some binding calls cover weakened binding; strength is not graded here.

By UniProt entry, the sequences of proteins in these tests, tags left out. Where a name states a change or a piece, a line headed by the entry shows the natural chain unless it says otherwise. Residues count along the entry.
UniProt P16070, residues 21-742: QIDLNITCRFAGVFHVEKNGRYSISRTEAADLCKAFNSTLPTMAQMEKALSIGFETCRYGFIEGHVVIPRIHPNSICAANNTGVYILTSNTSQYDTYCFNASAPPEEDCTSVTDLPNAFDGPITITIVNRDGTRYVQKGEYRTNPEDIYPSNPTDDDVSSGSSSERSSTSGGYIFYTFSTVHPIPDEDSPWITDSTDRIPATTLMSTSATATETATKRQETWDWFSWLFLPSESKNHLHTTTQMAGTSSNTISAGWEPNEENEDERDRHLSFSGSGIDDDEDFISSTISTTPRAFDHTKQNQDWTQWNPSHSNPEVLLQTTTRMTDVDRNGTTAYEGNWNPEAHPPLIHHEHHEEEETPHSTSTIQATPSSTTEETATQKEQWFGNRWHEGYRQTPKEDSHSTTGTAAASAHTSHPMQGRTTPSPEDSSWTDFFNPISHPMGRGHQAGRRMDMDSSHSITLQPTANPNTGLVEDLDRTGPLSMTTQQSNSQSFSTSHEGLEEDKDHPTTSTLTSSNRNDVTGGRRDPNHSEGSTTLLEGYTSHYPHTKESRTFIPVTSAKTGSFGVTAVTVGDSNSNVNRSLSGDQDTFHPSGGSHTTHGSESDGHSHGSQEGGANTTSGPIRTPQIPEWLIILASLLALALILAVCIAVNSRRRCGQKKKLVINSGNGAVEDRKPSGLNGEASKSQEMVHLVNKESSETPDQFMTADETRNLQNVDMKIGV
UniProt P10451, residues 17-314: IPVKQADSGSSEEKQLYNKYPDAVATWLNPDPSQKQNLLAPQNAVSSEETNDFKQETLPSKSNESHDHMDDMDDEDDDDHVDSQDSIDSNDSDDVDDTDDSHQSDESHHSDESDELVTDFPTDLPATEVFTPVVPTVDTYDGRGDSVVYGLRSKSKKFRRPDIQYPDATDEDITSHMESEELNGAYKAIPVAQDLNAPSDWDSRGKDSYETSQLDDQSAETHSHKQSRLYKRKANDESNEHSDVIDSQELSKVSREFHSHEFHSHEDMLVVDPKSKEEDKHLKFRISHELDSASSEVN

Target: CD44 (human (endogenous in CL1-5)) (UniProt P16070)
Assay: co-IP; anti-CD44 (Abcam ab157107) immunoprecipitation from RIPA lysate (1 mg protein) of CL1-5/OPN-a stable clone, protein G beads, 4°C; blots probed with anti-CD44 and anti-OPN (O17); compared with CL1-5/VC clone

## OPN-a-Myc-His fusion protein (osteopontin splicing variant a) (from UniProt P10451-1 17-314) (ligand)
  binding: binds
